This is an account of results in publication PMC6208778, “eIF2A, an initiator tRNA carrier refractory to eIF2α kinases, functions synergistically with eIF5B” (Cellular and Molecular Life Sciences: CMLS, 2018).

These are yes or no findings as the source states them, for the method shown. For some assays here: Binding calls can cover weak binding; strength is not graded here. Sequences can lack the tags named with a protein.

Assay in all cases: pull-down; GST pull-down: His–eIF2A (2 nM) with GST–eIF5B derivatives (2 nM each), 4 °C, 1 h, binding buffer (0.2% NP-40, 40 mM HEPES–KOH pH 7.5, 100 mM KCl, 1 mM EDTA, 2.5% BSA); Glutathione Sepharose 4B resin; western blotting with anti-His and anti-GST; both purified
(In general: In western blotting, separated proteins are transferred to a membrane and probed.)

Test [1] has as its target GST–eIF5B domain IV.
Test [2] deals with GST–eIF5B domain III.
Test [3] has as its target GST–eIF5B domains G + II + III + IV.
In test [4] the target is GST–eIF5B domains II + III.
Test [5] has as its target GST–eIF5B domains III + IV.

B1: His-tagged eIF2A (natural protein, human, UniProt Q9BY44 1-585, looked up)
chain: MAPSTPLLTVRGSEGLYMVNGPPHFTESTVFPRESGKNCKVCIFSKDGTLFAWGNGEKVNIISVTNKGLLHSFDLLKAVCLEFSPKNTVLATWQPYTTSKDGTAGIPNLQLYDVKTGTCLKSFIQKKMQNWCPSWSEDETLCARNVNNEVHFFENNNFNTIANKLHLQKINDFVLSPGPQPYKVAVYVPGSKGAPSFVRLYQYPNFAGPHAALANKSFFKADKVTMLWNKKATAVLVIASTDVDKTGASYYGEQTLHYIATNGESAVVQLPKNGPIYDVVWNSSSTEFCAVYGFMPAKATIFNLKCDPVFDFGTGPRNAAYYSPHGHILVLAGFGNLRGQMEVWDVKNYKLISKPVASDSTYFAWCPDGEHILTATCAPRLRVNNGYKIWHYTGSILHKYDVPSNAELWQVSWQPFLDGIFPAKTITYQAVPSEVPNEEPKVATAYRPPALRNKPITNSKLHEEEPPQNMKPQSGNDKPLSKTALKNQRKHEAKKAAKQEARSDKSPDLAPTPAPQSTPRNTVSQSISGDPEIDKKIKNLKKKLKAIEQLKEQAATGKQLEKNQLEKIQKETALLQELEDLELGI
notes: eukaryotic initiation factor 2A (eIF2A); also called His–eIF2A; eukaryotic initiation factor 2A; source: E. coli M15 (plasmid pQE31/His–eIF2A), purified
Consider B1, for which the binding entry is listed as “binds weakly” in test [1]; “no binding (tested: 2 nM)” in test [2]; “binds” in test [3]; “no binding (tested: 2 nM)” in test [4]; “binds weakly” in test [5].
